Literature values as cited in publication PMC4977052, “On the Utility of ToxCast™ and ToxPi as Methods for Identifying New Obesogens” (Environmental Health Perspectives, 2016).

Tests used:
PPARγ = conditions: potency relative to cytotoxicity; ToxCast 2014 release; ref Filer et al. 2014; cited from earlier work
Human PPARγ = conditions: potency relative to cytotoxicity; ToxCast 2014 release; ref Filer et al. 2014; cited from earlier work

| SMILES | Tox21/NCGC Z-Score (panel B) (PPARγ) | NovaScreen Z-Score (panel A) (Human PPARγ) | NovaScreen Z-Score (panel B) (Human PPARγ) | Tox21/NCGC Z-Score (panel A) (PPARγ) |
| --- | --- | --- | --- | --- |
| O=C(O)CCCOc1ccc(Cl)cc1Cl [2,4-DB] | 6.7 |  |  |  |
| Oc1ccccc1-c1ccccc1 [2-Phenylphenol] |  | 11.2 | 11.2 |  |
| O=C(O)c1cc(Oc2ccc(C(F)(F)F)cc2Cl)ccc1[N+](=O)[O-] [Acifluorfen] |  |  | 7.1 |  |
| CCNc1nc(NC(C)C)nc(SC)n1 [Ametryn] |  | -0.8 |  | 1.1 |
| CCNc1nc(Cl)nc(NC(C)C)n1 [Atrazine] | 14.1 | 13.4 | 13.4 | 14.1 |
| CCOc1nc(F)cc2nc(S(=O)(=O)Nc3c(Cl)cccc3Cl)nn12 [Diclosulam] | 9.6 |  |  |  |
| CCOP(=S)(OCC)SCCSCC [Disulfoton] |  |  | 10.6 |  |
| CCCSP(=O)(OCC)SCCC [Ethoprop] |  |  | 9.2 |  |
| CCOP(=O)(NC(C)C)Oc1ccc(SC)c(C)c1 (stereo not shown) [Fenamiphos] | 7.0 | 6.4 | 6.4 | 7.0 |
| N#Cc1nn(-c2c(Cl)cc(C(F)(F)F)cc2Cl)c(N)c1[S+]([O-])C(F)(F)F (stereo not shown) [Fipronil] |  | 10.8 |  |  |
| CCCCOC(=O)C(C)Oc1ccc(Oc2ccc(C(F)(F)F)cn2)cc1 (stereo not shown) [Fluazifop-butyl] |  |  | 11.9 |  |
| CC(C)Oc1cccc(NC(=O)c2ccccc2C(F)(F)F)c1 [Flutolanil] |  | -1.1 |  | -3.1 |
| CCCCC(O)(Cn1cncn1)c1ccc(Cl)cc1Cl (stereo not shown) [Hexaconazole] |  | 5.0 |  | 7.2 |
| CC(C)NC(=O)N1CC(=O)N(c2cc(Cl)cc(Cl)c2)C1=O [Iprodione] | 5.1 | 10.0 | 10.0 | 5.1 |
| CS(=O)(=O)c1cc(C(F)(F)F)ccc1C(=O)c1cnoc1C1CC1 [Isoxaflutole] | 6.0 |  |  |  |
| CCCCOC(=O)c1ccccc1C(=O)O [MBP] |  |  | 15.2 |  |
| Cc1cc(Cl)ccc1OCC(=O)O [MCPA] | 2.3 | 14.7 | 14.7 | 2.3 |
| COc1nn(CSP(=S)(OC)OC)c(=O)s1 [Methidathion] |  | 15.2 | 15.2 |  |
| CCSC(=O)N1CCCCCC1 [Molinate] |  |  | 16.0 |  |
| CNC(=O)/C=C(\C)OP(=O)(OC)OC [Monocrotophos] |  | 0.3 |  | -1.7 |
| O=C(Nc1ccc([N+](=O)[O-])cc1Cl)c1cc(Cl)ccc1O [Niclosamide] |  |  |  | -7.4 |
| O=C(O)c1c(Cl)ccc2cc(Cl)cnc12 [Quinclorac] |  |  | 17.2 |  |
| CCNc1nc(Cl)nc(NCC)n1 [Simazine] |  |  | 10.7 |  |
| CCC(C)(C)C(=O)OC1=C(c2ccc(Cl)cc2Cl)C(=O)OC12CCCCC2 [Spirodiclofen] | 4.3 |  |  |  |
| CC(C)=CC1C(C(=O)OCN2C(=O)C3=C(CCCC3)C2=O)C1(C)C (stereo not shown) [Tetramethrin] |  | 1.4 |  | -5.8 |
| COP(=O)(OC)C(O)C(Cl)(Cl)Cl (stereo not shown) [Trichlorfon] |  |  |  | 11.0 |
| O=C(O)COc1nc(Cl)c(Cl)cc1Cl [Triclopyr] | 5.3 | 10.2 | 10.2 | 5.3 |
| Oc1cc(Cl)ccc1Oc1ccc(Cl)cc1Cl [Triclosan] |  | 2.1 |  |  |
| CCCOC/C(=N\c1ccc(Cl)cc1C(F)(F)F)n1ccnc1 [Triflumizole] |  | -0.8 |  | -3.6 |
